Data published in publication PMC8748612, “Maximizing response to intratumoral immunotherapy in mice by tuning local retention” (Nature Communications, 2022).
Substitutions are numbered along the chain they refer to. No constants are given. Whether binding was seen depends on the method and setting. Some binding calls cover weakened binding; strength is not graded here. Sequences can lack the tags named with a protein. Blank lines part the entries; values can stand above or below the binder they belong to.

Protein sequences, listed by entry. Tags and fused reporters are not part of them. Lines headed by an entry give the natural chain unless they say otherwise; changes in a name come on top.
UniProt P02454: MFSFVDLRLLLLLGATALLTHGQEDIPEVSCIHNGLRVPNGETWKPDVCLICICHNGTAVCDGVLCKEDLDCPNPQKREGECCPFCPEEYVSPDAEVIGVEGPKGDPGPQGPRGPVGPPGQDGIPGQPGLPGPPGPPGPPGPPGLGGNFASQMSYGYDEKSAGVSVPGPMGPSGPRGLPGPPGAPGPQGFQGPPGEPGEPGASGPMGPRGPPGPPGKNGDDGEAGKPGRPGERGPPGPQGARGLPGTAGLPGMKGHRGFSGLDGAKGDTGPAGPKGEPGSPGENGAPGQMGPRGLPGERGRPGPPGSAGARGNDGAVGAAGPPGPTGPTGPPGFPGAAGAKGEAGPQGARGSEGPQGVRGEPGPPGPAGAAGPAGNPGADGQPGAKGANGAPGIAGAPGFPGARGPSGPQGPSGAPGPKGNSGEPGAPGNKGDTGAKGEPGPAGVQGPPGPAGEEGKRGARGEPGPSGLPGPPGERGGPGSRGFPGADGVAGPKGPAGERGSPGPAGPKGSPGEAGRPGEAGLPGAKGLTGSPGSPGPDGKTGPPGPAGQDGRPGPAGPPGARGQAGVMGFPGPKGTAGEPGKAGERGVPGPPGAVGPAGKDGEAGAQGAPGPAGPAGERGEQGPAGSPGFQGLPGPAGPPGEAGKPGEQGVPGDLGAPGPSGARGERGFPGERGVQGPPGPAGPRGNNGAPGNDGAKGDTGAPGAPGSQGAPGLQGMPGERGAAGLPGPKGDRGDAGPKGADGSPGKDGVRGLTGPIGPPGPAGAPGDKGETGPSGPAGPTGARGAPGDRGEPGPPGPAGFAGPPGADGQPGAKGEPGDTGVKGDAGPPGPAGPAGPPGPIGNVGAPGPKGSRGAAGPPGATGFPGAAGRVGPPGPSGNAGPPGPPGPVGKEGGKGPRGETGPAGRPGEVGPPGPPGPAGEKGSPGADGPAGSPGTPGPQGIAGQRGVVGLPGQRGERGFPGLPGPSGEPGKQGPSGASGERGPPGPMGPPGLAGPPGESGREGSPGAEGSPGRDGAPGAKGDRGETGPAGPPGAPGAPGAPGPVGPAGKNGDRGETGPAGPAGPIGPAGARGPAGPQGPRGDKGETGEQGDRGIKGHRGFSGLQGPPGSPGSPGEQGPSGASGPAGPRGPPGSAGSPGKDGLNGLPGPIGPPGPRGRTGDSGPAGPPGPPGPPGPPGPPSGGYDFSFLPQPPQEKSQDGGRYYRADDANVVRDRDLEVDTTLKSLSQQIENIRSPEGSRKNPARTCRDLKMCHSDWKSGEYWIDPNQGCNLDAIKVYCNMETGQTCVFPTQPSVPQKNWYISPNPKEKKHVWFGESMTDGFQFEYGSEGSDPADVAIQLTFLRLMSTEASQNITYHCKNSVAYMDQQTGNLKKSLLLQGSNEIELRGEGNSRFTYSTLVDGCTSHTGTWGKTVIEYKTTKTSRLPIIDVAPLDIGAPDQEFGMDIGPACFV

Target: Collagen I (Gibco), coated on 96-well plates (UniProt P02454)
Assay: ELISA; Collagen I (Gibco) coated 96-well plates; LAIR-fusion proteins in PBSTA (PBS, 0.1% BSA, 0.05% Tween-20) for 4 h at room temperature; detected with HRP-conjugated polyclonal anti-6xHis; both purified

binding: binds
B1: LAIR-his (domain or fragment)
chain: QEGSLPDITIFPNSSLMISQGTFVTVVCSYSDKHDLYNMVRLEKDGSTFMEKSTEPYKTEDEFEIGPVNETITGHYSCIYSKGITWSERSKTLELKVIKENVIQTPAPGPTSDTSWLKTYSIY

binding: no binding
B2: LAIRx-his (domain or fragment)
chain: B1 chain with R41A, E43A
